± gives the standard deviation of the averaged measurements. This is a selection; strong and weak results do not stand in their true shares. Most values lie at the level of the controls, where differences are scatter.

Sequences of proteins named here, by UniProt entry; tags and fusion partners are left off. A change or cut given only in a name is not applied to a line headed by its entry.
UniProt Q9H3Z4: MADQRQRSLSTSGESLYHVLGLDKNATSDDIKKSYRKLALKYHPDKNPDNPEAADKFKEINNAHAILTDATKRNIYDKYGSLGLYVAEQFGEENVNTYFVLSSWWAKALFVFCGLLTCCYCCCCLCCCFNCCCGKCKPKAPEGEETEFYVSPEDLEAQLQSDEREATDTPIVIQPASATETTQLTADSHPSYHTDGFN
UniProt Q9H2M9: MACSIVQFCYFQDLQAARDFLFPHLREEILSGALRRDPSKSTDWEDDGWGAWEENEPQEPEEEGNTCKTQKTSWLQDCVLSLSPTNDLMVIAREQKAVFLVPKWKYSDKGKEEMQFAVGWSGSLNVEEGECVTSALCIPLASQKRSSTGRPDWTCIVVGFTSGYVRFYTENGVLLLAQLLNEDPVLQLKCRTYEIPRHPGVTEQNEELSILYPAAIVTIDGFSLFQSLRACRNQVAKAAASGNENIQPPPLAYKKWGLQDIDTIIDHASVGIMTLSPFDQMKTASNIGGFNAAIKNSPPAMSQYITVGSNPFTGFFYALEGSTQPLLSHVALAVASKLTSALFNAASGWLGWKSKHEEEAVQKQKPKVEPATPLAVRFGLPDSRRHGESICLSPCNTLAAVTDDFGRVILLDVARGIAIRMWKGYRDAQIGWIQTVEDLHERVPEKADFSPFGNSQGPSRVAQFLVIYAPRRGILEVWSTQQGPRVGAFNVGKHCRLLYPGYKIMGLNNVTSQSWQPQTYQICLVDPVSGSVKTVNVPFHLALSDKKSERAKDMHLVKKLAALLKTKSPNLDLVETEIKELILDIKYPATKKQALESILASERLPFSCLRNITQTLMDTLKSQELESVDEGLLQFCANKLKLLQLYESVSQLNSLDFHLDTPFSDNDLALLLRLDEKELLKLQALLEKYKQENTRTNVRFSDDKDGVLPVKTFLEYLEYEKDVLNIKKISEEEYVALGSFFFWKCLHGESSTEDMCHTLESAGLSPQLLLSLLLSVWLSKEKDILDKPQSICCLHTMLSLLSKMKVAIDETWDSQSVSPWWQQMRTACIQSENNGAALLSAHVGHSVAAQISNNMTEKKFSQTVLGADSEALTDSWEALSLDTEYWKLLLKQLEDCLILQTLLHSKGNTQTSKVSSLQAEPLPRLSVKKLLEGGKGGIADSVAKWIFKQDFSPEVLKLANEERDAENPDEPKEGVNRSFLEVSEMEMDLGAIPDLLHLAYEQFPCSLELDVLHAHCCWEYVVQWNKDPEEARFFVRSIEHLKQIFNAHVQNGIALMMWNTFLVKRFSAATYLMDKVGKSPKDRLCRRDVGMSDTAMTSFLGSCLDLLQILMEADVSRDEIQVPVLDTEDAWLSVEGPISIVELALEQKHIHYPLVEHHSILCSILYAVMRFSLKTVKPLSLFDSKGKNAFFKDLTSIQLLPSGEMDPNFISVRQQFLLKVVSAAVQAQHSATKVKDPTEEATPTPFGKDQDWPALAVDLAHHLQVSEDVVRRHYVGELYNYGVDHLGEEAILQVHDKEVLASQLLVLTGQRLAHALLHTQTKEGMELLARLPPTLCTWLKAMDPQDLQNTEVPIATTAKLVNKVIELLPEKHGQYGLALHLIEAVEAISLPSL
UniProt Q9H0F7: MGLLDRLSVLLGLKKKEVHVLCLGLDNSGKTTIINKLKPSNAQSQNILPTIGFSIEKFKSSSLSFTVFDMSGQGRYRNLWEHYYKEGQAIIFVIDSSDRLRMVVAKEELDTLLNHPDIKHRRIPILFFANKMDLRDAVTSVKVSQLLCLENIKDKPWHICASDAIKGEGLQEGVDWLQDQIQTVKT
UniProt Q9H4L5: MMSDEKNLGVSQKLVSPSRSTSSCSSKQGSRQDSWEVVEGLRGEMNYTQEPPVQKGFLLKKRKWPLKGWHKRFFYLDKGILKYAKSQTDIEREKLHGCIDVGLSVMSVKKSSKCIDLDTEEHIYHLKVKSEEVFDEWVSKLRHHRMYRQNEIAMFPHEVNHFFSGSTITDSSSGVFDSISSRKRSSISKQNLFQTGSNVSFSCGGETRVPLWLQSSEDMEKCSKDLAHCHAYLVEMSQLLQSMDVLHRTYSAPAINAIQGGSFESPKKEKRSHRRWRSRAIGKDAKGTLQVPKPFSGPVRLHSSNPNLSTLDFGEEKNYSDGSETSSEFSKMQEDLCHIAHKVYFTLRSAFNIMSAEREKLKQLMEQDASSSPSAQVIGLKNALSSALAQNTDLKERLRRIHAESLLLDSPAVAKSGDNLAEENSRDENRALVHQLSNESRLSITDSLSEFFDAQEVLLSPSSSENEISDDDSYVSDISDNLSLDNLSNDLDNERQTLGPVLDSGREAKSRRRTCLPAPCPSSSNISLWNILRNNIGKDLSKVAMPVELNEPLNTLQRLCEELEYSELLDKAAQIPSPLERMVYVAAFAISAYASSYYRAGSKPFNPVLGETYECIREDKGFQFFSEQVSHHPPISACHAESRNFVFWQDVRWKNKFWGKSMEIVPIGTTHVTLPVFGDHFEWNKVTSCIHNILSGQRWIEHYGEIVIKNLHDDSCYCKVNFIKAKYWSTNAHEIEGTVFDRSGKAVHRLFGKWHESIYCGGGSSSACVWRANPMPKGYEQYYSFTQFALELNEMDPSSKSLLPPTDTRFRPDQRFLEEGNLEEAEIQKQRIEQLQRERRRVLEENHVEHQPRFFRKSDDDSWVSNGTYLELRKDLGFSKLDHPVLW
UniProt Q9BZV1: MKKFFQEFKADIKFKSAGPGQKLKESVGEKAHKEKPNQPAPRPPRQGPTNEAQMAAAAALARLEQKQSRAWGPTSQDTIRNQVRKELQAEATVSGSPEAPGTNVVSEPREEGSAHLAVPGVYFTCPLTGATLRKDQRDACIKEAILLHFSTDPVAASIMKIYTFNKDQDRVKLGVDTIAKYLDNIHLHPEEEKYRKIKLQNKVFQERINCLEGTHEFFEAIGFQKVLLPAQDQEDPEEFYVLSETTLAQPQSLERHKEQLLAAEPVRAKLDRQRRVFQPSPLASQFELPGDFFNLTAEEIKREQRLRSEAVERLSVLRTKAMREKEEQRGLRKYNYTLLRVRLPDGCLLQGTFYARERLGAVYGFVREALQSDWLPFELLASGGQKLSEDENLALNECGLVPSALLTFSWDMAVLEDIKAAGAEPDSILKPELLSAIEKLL
UniProt Q9HCJ0: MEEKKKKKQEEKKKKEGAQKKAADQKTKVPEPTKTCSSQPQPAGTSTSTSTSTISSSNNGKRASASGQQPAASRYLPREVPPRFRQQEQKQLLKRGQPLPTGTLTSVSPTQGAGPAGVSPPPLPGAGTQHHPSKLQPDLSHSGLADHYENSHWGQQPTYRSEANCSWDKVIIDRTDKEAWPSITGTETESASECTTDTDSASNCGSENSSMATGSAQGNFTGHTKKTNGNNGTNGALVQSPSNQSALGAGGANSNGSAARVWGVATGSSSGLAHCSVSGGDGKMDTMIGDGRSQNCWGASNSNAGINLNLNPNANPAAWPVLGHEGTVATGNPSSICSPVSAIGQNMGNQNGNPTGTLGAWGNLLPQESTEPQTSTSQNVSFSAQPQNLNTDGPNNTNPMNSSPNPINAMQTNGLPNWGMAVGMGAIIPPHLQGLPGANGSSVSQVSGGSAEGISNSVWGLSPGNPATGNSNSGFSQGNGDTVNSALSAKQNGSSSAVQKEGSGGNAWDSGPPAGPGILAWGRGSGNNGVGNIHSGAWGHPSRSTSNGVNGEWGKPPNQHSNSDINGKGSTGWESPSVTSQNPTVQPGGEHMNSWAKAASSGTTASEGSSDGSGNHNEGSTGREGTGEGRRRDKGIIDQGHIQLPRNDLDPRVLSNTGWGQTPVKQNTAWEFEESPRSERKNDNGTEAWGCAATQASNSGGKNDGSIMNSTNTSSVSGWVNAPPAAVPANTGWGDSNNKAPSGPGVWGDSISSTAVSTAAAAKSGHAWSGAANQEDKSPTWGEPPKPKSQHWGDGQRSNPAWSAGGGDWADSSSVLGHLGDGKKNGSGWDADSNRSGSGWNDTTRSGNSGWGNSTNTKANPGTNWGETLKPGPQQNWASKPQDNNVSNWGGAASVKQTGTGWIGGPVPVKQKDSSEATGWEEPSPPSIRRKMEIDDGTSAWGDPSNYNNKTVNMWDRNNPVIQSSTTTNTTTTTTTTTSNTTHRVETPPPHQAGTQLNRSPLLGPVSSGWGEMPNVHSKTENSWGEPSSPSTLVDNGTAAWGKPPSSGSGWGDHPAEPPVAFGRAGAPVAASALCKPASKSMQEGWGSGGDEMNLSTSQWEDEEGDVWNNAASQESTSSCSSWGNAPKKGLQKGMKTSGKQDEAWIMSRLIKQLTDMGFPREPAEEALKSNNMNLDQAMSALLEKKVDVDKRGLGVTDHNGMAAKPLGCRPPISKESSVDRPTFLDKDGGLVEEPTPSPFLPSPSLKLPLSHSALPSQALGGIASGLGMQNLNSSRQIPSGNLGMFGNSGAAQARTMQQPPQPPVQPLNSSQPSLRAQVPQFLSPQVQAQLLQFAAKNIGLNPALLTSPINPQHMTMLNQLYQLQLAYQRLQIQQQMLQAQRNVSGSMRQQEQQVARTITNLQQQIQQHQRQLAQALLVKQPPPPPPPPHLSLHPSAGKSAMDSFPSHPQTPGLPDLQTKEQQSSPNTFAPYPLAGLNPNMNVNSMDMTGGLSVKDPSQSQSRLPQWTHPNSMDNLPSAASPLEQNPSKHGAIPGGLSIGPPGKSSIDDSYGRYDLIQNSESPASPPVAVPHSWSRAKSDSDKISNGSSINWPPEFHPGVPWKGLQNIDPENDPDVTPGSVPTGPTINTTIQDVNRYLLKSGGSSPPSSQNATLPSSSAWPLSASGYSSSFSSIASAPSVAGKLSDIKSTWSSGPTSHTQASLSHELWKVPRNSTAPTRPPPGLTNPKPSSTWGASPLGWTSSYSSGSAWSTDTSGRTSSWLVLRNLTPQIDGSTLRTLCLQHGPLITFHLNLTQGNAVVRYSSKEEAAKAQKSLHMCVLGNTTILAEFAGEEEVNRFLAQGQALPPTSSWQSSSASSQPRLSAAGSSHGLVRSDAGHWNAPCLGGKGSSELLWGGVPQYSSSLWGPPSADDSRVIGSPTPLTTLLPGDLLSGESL
UniProt Q9H6F5: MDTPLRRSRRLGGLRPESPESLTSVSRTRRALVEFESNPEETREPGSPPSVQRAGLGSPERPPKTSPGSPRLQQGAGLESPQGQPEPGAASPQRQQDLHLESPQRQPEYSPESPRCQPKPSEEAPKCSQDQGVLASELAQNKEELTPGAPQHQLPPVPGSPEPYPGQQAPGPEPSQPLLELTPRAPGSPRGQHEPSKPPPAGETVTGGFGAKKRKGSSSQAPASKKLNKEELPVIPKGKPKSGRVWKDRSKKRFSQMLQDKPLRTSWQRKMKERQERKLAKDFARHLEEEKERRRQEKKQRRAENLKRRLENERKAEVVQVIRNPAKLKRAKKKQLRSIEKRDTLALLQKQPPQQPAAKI
UniProt Q9H0V9: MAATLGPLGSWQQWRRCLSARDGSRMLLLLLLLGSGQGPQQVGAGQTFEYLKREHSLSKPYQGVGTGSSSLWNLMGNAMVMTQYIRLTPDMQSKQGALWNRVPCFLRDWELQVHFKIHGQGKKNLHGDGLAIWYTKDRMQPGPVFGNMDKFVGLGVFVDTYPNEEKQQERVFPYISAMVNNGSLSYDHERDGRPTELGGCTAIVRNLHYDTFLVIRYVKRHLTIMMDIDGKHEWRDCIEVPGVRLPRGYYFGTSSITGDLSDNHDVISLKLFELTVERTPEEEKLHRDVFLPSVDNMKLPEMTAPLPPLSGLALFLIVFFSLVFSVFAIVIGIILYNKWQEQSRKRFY
UniProt Q9HCM4: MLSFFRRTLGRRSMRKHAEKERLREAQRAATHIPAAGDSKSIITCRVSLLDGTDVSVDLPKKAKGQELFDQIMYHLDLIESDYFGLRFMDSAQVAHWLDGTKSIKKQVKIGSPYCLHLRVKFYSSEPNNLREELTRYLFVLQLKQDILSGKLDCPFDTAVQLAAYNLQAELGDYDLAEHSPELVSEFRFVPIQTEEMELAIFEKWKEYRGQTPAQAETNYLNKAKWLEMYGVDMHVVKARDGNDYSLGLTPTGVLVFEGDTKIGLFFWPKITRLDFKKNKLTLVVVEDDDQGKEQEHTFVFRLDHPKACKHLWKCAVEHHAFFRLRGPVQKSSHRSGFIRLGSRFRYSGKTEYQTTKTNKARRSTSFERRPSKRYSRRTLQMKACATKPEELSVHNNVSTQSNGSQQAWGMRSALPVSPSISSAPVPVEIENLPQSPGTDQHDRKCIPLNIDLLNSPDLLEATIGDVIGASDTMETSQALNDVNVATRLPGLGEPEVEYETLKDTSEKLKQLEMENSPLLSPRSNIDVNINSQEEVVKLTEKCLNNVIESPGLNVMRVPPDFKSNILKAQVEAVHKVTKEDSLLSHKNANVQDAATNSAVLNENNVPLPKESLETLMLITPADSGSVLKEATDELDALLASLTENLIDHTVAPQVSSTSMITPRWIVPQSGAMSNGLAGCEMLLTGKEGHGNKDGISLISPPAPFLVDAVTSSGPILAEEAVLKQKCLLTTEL
UniProt Q9NP97, whole entry: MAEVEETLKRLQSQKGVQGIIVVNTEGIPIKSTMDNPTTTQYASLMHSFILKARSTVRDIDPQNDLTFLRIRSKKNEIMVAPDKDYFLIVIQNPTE

Compound in this assay: Nc1ncnc2c1ncn2[C@@H]1O[C@H](COP(=O)(O)OP(=O)(O)NP(=O)(O)O)[C@@H](O)[C@H]1O [adenylyl imidodiphosphate]
The assay can be described thus: NP40-soluble protein abundance relative to vehicle (solubility fold change) (ratio); higher = more soluble protein in presence of AMP-PNP. Put shortly:
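Across three independent experiments, values are fold changes against the detergent-processed vehicle for each replicate, based on vsn-normalised intensities. The samples were Jurkat crude lysate treated with eight concentrations (0.1 to 10 mM) for 10 min at room temperature and then 3 min at 37 °C. Lysate was solubilised with 0.8% NP40 and benzonase, ultracentrifuged, and the supernatant analysed by TMT-labelled LC-MS/MS.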

For UniProt Q9H3Z4 and related entries, the NP40-soluble protein abundance turned out to be 1.01 ± 0.045 (concentration: 0.1mM) and 1.04 ± 0.048 (concentration: 0.5mM).

Take NMRAL1 (UniProt Q9HBL8): the NP40-soluble protein abundance came to 1.01 ± 0.036 (concentration: 0.1mM) and 1.01 ± 0.04 (concentration: 0.5mM).

Take SDF2L1 (UniProt Q9HCN8): the NP40-soluble protein abundance runs as follows: (concentration: 0.1mM) 1 ± 0.016; (concentration: 0.5mM) 0.988 ± 0.033.

CHMP4B (UniProt Q9H444): the NP40-soluble protein abundance by setting is: (concentration: 0.1mM) 0.974 ± 0.077; (concentration: 0.5mM) 1.05 ± 0.093.

With UniProt Q9H173 and related entries, the NP40-soluble protein abundance is 0.972 ± 0.034 (concentration: 0.1mM) and 1.016 ± 0.0031 (concentration: 0.5mM).

Take UniProt Q9H583 and related entries: the NP40-soluble protein abundance by setting is: (concentration: 0.1mM) 0.994 ± 0.041; (concentration: 0.5mM) 0.993 ± 0.014.

For WDR61 (UniProt Q9GZS3), the NP40-soluble protein abundance (concentration: 0.1mM) worked out at 0.979 ± 0.012 and the NP40-soluble protein abundance (concentration: 0.5mM) was found to be 0.953 ± 0.043.

Turning to SRA1 (UniProt Q9HD15), the NP40-soluble protein abundance stood at 0.959 ± 0.022 (concentration: 0.1mM) and 0.954 ± 0.028 (concentration: 0.5mM).

For UNK (UniProt Q9C0B0), the NP40-soluble protein abundance was found to be 1.005 ± 0.0037 (concentration: 0.1mM) and 1.04 ± 0.057 (concentration: 0.5mM).

Regarding PLEKHA3 (UniProt Q9HB20), the NP40-soluble protein abundance turned out to be 0.997 ± 0.021 (concentration: 0.1mM) and 0.993 ± 0.022 (concentration: 0.5mM).

Regarding UniProt Q9H7E9 and related entries, the NP40-soluble protein abundance came to 1.04 ± 0.078 (concentration: 0.1mM) and 1.09 ± 0.12 (concentration: 0.5mM).

With RAB3GAP2 (UniProt Q9H2M9), the NP40-soluble protein abundance was determined as 1.02 ± 0.017 (concentration: 0.1mM) and 0.986 ± 0.037 (concentration: 0.5mM).

Regarding UniProt Q9H857 and related entries, the NP40-soluble protein abundance was 1.04 ± 0.051 (concentration: 0.1mM) and 0.997 ± 0.13 (concentration: 0.5mM).

Take UniProt Q9H9T3-2: the NP40-soluble protein abundance worked out at 1.04 ± 0.024 (concentration: 0.1mM) and 1.01 ± 0.051 (concentration: 0.5mM).

In the case of SLC38A10 (UniProt Q9HBR0), the NP40-soluble protein abundance runs as follows: (concentration: 0.1mM) 0.987 ± 0.021; (concentration: 0.5mM) 1 ± 0.011.

For the target RANGRF (UniProt Q9HD47), the NP40-soluble protein abundance turned out to be 1.02 ± 0.062 (concentration: 0.1mM) and 1.023 ± 0.0076 (concentration: 0.5mM).

Regarding UCK1 (UniProt Q9HA47), the NP40-soluble protein abundance is 0.961 ± 0.017 (concentration: 0.1mM) and 0.997 ± 0.023 (concentration: 0.5mM).

SMYD3 (UniProt Q9H7B4): the NP40-soluble protein abundance reads like this: (concentration: 0.1mM) 0.987 ± 0.07; (concentration: 0.5mM) 0.933 ± 0.06.

Regarding FTO (UniProt Q9C0B1), the NP40-soluble protein abundance reads like this: (concentration: 0.1mM) 0.99 ± 0.024; (concentration: 0.5mM) 0.993 ± 0.056.

With UniProt Q9HAJ7 and related entries, the NP40-soluble protein abundance by setting is: (concentration: 0.1mM) 1.06 ± 0.021; (concentration: 0.5mM) 0.949 ± 0.016.

Consider UniProt Q9NPB8 and related entries, for which the NP40-soluble protein abundance by setting is: (concentration: 0.1mM) 1.024 ± 0.0037; (concentration: 0.5mM) 1.02 ± 0.014.

As to UniProt Q9H0F7 and related entries, the NP40-soluble protein abundance is, setting by setting: (concentration: 0.1mM) 1.06 ± 0.056; (concentration: 0.5mM) 1.05 ± 0.083.

With UniProt Q9H1K0, the NP40-soluble protein abundance reads like this: (concentration: 0.1mM) 0.985 ± 0.013; (concentration: 0.5mM) 0.982 ± 0.044.

Take RPAP3 (UniProt Q9H6T3): the NP40-soluble protein abundance is 0.9855 ± 0.0059 (concentration: 0.1mM) and 1 ± 0.018 (concentration: 0.5mM).

For the target UniProt Q9BZE9 and related entries, the NP40-soluble protein abundance amounted to 0.986 ± 0.034 (concentration: 0.1mM) and 0.999 ± 0.077 (concentration: 0.5mM).

Regarding RAB1B (UniProt Q9H0U4), the NP40-soluble protein abundance reads like this: (concentration: 0.1mM) 0.9566 ± 0.0079; (concentration: 0.5mM) 0.998 ± 0.031.

As for UniProt Q9H3N1, the NP40-soluble protein abundance turned out to be 0.999 ± 0.012 (concentration: 0.1mM) and 0.988 ± 0.06 (concentration: 0.5mM).

Take UniProt Q9H8K7: the NP40-soluble protein abundance is, setting by setting: (concentration: 0.1mM) 0.997 ± 0.036; (concentration: 0.5mM) 0.991 ± 0.034.

Consider UniProt Q9H4L5 and related entries, for which the NP40-soluble protein abundance is, setting by setting: (concentration: 0.1mM) 0.984 ± 0.029; (concentration: 0.5mM) 0.996 ± 0.033.

Turning to WDR12 (UniProt Q9GZL7), the NP40-soluble protein abundance is 1 ± 0.021 (concentration: 0.1mM) and 1.01 ± 0.047 (concentration: 0.5mM).

Consider NUCKS1 (UniProt Q9H1E3), for which the NP40-soluble protein abundance was determined as 0.946 ± 0.035 (concentration: 0.1mM) and 1 ± 0.019 (concentration: 0.5mM).

Take UniProt Q9H1Z4 and related entries: the NP40-soluble protein abundance worked out at 1 ± 0.017 (concentration: 0.1mM) and 0.991 ± 0.026 (concentration: 0.5mM).

Consider UniProt Q9H0X4, for which the NP40-soluble protein abundance reads like this: (concentration: 0.1mM) 0.944 ± 0.022; (concentration: 0.5mM) 0.9583 ± 0.0033.

As for UniProt Q9H4X1 and related entries, the NP40-soluble protein abundance reads like this: (concentration: 0.1mM) 1 ± 0.02; (concentration: 0.5mM) 1.01 ± 0.051.

Take UniProt Q9BZV1 and related entries: the NP40-soluble protein abundance runs as follows: (concentration: 0.1mM) 1.01 ± 0.02; (concentration: 0.5mM) 0.977 ± 0.02.

In the case of KLC2 (UniProt Q9H0B6), the NP40-soluble protein abundance runs as follows: (concentration: 0.1mM) 1.02 ± 0.036; (concentration: 0.5mM) 1.01 ± 0.034.

UniProt Q9H165 and related entries: the NP40-soluble protein abundance is 0.9936 ± 0.0057 (concentration: 0.1mM) and 0.998 ± 0.019 (concentration: 0.5mM).

On to UniProt Q9GZR5, for which the NP40-soluble protein abundance runs as follows: (concentration: 0.1mM) 0.952 ± 0.059; (concentration: 0.5mM) 0.968 ± 0.012.

For the target RABEP2 (UniProt Q9H5N1), the NP40-soluble protein abundance runs as follows: (concentration: 0.1mM) 0.998 ± 0.026; (concentration: 0.5mM) 0.986 ± 0.064.

Take UniProt Q9HCJ0 and related entries: the NP40-soluble protein abundance was determined as 0.9914 ± 0.0092 (concentration: 0.1mM) and 1.018 ± 0.0076 (concentration: 0.5mM).

Turning to UniProt Q9H4L7 and related entries, the NP40-soluble protein abundance (concentration: 0.1mM) came to 0.9931 ± 0.0058 and the NP40-soluble protein abundance (concentration: 0.5mM) was determined as 0.98 ± 0.033.

For the target CCDC86 (UniProt Q9H6F5), the NP40-soluble protein abundance is, setting by setting: (concentration: 0.1mM) 1.05 ± 0.026; (concentration: 0.5mM) 1.01 ± 0.026.

As to UniProt Q9H0V9 and related entries, the NP40-soluble protein abundance came out at 1.02 ± 0.051 (concentration: 0.1mM) and 1 ± 0.073 (concentration: 0.5mM).

Consider SFXN1 (UniProt Q9H9B4), for which the NP40-soluble protein abundance was determined as 0.991 ± 0.022 (concentration: 0.1mM) and 0.98 ± 0.02 (concentration: 0.5mM).

Regarding L2HGDH (UniProt Q9H9P8), the NP40-soluble protein abundance (concentration: 0.1mM) stood at 1.008 ± 0.0082 and the NP40-soluble protein abundance (concentration: 0.5mM) is 1.01 ± 0.012.

Consider LHPP (UniProt Q9H008), for which the NP40-soluble protein abundance reads like this: (concentration: 0.1mM) 1.05 ± 0.02; (concentration: 0.5mM) 1.03 ± 0.03.

For UniProt Q9H477 and related entries, the NP40-soluble protein abundance (concentration: 0.1mM) came out at 0.991 ± 0.017 and the NP40-soluble protein abundance (concentration: 0.5mM) worked out at 0.99 ± 0.039.

As to UniProt Q9H4A4 and related entries, the NP40-soluble protein abundance (concentration: 0.1mM) came out at 1.02 ± 0.039 and the NP40-soluble protein abundance (concentration: 0.5mM) was 1.03 ± 0.048.

As to EHD1 (UniProt Q9H4M9), the NP40-soluble protein abundance by setting is: (concentration: 0.1mM) 0.9973 ± 0.0045; (concentration: 0.5mM) 0.962 ± 0.049.

With CPVL (UniProt Q9H3G5), the NP40-soluble protein abundance by setting is: (concentration: 0.1mM) 0.979 ± 0.04; (concentration: 0.5mM) 0.973 ± 0.051.

With “UniProt Q9H4A5-2|Q5T5I6 and related entries”, the NP40-soluble protein abundance is, setting by setting: (concentration: 0.1mM) 1.02 ± 0.034; (concentration: 0.5mM) 1.011 ± 0.006.

In the case of UniProt Q9H8M5 and related entries, the NP40-soluble protein abundance is, setting by setting: (concentration: 0.1mM) 0.958 ± 0.028; (concentration: 0.5mM) 0.986 ± 0.063.

As for UniProt Q9HCM4 and related entries, the NP40-soluble protein abundance is 0.996 ± 0.035 (concentration: 0.1mM) and 0.996 ± 0.042 (concentration: 0.5mM).

With CARS2 (UniProt Q9HA77), the NP40-soluble protein abundance runs as follows: (concentration: 0.1mM) 1 ± 0.051; (concentration: 0.5mM) 0.935 ± 0.074.

For RACGAP1 (UniProt Q9H0H5), the NP40-soluble protein abundance reads like this: (concentration: 0.1mM) 0.987 ± 0.011; (concentration: 0.5mM) 1.02 ± 0.025.

In the case of DYNLRB1 (UniProt Q9NP97), the NP40-soluble protein abundance is, setting by setting: (concentration: 0.1mM) 1.02 ± 0.031; (concentration: 0.5mM) 1.06 ± 0.084.

Consider PTPN23 (UniProt Q9H3S7), for which the NP40-soluble protein abundance (concentration: 0.1mM) worked out at 1.01 ± 0.018 and the NP40-soluble protein abundance (concentration: 0.5mM) turned out to be 1.01 ± 0.028.

Take FAM117A (UniProt Q9C073): the NP40-soluble protein abundance (concentration: 0.1mM) was found to be 1.02 ± 0.04 and the NP40-soluble protein abundance (concentration: 0.5mM) amounted to 1.01 ± 0.016.

UniProt Q9HC21 and related entries: the NP40-soluble protein abundance reads like this: (concentration: 0.1mM) 1.03 ± 0.055; (concentration: 0.5mM) 0.989 ± 0.077.

In the case of UniProt Q9H1B7, the NP40-soluble protein abundance reads like this: (concentration: 0.1mM) 1.02 ± 0.011; (concentration: 0.5mM) 1 ± 0.034.
